This is an account of results in the supplement of paper PMC10727501.

Molecules are shown by their SMILES. The list shows a part of the results. Single values are uncertain here, since repeats match poorly.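 Free-swimming zebrafish larvae were scored for O-bend response probability to dark flashes (naive: first five; training: remaining flashes of four 60-flash blocks; test: later 60-flash block) and for turning toward alternating leftward/rightward LED motion (OMR). Six treated larvae were compared with sixty 0.1% DMSO controls; |SSMD|≥2 defined a hit.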

In the first test the test system is Danio rerio larvae (5 dpf, TLF). Description: Prob-Test (SSMD vs DMSO vehicle); higher = higher than vehicle (e.g. higher dark-flash O-bend response probability, or better optomotor performance). Conditions: 10 µM; pre-incubation: 30-90 min.
Compound `COc1cc([C@H]2Oc3cc([C@@H]4Oc5cc(O)cc(O)c5C(=O)[C@@H]4O)ccc3O[C@@H]2CO)ccc1O` [Silibinin] showed a Prob-Test of 0.171.

`Cc1ccnc(NS(=O)(=O)c2ccc(N)cc2)n1` [Sulfamerazine] registered a Prob-Test of 0.504. Same read-out and setting: the figure for `COc1ccc2c(Oc3ccc(NC(=O)c4c(C)n(CC(C)(C)O)n(-c5ccccc5)c4=O)nc3)ccnc2c1` is -0.801. Same read-out and setting: as for `c1cn2cc(-c3ccc4cn[nH]c4c3)nc(Nc3ccc(N4CCOCC4)cc3)c2n1`, the figure is -0.225; as for `N.N.O=C([O-])C1(C(=O)[O-])CCC1.[Pt+2]` [Carboplatin], -0.173. In turn, `Cc1cc2nc3c(=O)[nH]c(=O)nc-3n(C[C@H](O)[C@H](O)[C@H](O)CO)c2cc1C` [Riboflavin (Vitamin B2)] displayed a Prob-Test of -0.671. On the same count and under the same terms, the figure for `O=C(Oc1ccccc1C(=O)O)c1ccccc1O` [Sasapyrine] is 0.0139. The same measure, in the same setting: as for `CCCc1cc2c(N3CCN(C4=NCC(C)(C)S4)CC3)ncnc2s1` [MI-2 (Menin-MLL Inhibitor)], the figure is -1; as for `CC(NC(=O)c1ccccc1/N=C/c1c(O)ccc2ccccc12)c1ccccc1` (configuration not stated) [Sirtinol], -0.219; as for `COc1cc(C(=O)NC2CCCNC2)cc(OC)c1OC` (configuration not stated) [Troxipide], 0.558. Same read-out and setting: the figure for `O=C(O)c1cc(/N=N/c2ccc(S(=O)(=O)Nc3ccccn3)cc2)ccc1O` [Sulfasalazine] is 0.354; for `O=C(Oc1cc(S(=O)(=O)c2ccccc2)ccc1[N+](=O)[O-])c1ccc(Cl)cc1` it is -0.929; for `CC(=O)CCCCn1c(=O)c2c(ncn2C)n(C)c1=O` [Pentoxifylline] it is 0.566.

The compound `Nc1nc(=O)[nH]cc1F` [Flucytosine] registered a Prob-Test of 0.0104. On the same count and under the same terms, the figure for `CCNC(=O)C1=C(c2ccc(OC)cc2)C(=C2C=C(Cl)C(O)=CC2=O)NN1` is -0.00285; for `CC(C)C[C@@H](C(=O)N[C@H](C(=O)OC1CCCC1)c1ccccc1)[C@H](O)C(=O)NO` [Tosedostat (CHR2797)] it is -0.00405. The compound `N=C(N)NS(=O)(=O)c1ccc(N)cc1` [Sulfaguanidine] returned a Prob-Test of 0.335.

For the next test the test system is unchanged. Nature of the test: Prob-Naive (SSMD vs DMSO vehicle); higher = higher than vehicle (e.g. higher dark-flash O-bend response probability, or better optomotor performance). Conditions: 10 µM; pre-incubation: 30-90 min.
Consider `NC(=S)NN=Cc1ncccc1N` [Triapine], for which the Prob-Naive came out at 0.0243. In turn, `CCN1CCN(C(=O)N[C@@H](C(=O)N[C@H]2C(=O)N3[C@@H]2SC(C)(C)[C@H]3C(=O)[O-])c2ccccc2)C(=O)C1=O.[Na+]` [Piperacillin Sodium] registered a Prob-Naive of 0.147. The same measure, in the same setting: as for `Br.Br.NCCCCCNCC12CC3CC(CC(C3)C1)C2` [IEM 1754 dihydrobroMide], the figure is -0.232. The compound `Cc1cc(C(C)(C)C)c(O)c(C)c1CC1=NCCN1.Cl` [Oxymetazoline HCl] displayed a Prob-Naive of 0.644. The same measure, in the same setting: the figure for `NC(CO)(CO)CO` [Trometamol] is 0.0839; for `CN1CCC[C@@H]1CCO[C@](C)(c1ccccc1)c1ccc(Cl)cc1.O=C(O)/C=C/C(=O)O` [Clemastine Fumarate] it is 0.759. Compound `Cl.Clc1ccccc1CN1CCc2sccc2C1` [Ticlopidine HCl] yielded a Prob-Naive of -0.578. Same read-out and setting: as for `Cc1cn2cc(C(=O)N(C)CCO)cc(N[C@@H]3CCOc4cccc(C)c43)c2n1`, the figure is -0.592. On the same count and under the same terms, as for `CC(C)Oc1ccc2c(=O)c(-c3ccccc3)coc2c1` [Ipriflavone (Osteofix)], the figure is -0.666; as for `Cc1cc(Nc2ncnc3ccc(-c4ccc(CNCCS(C)(=O)=O)o4)cc23)ccc1Oc1ccn2ncnc2c1` [HER2-Inhibitor-1], -0.17. Same read-out and setting: as for `NC(=O)N1c2ccccc2CC(=O)c2ccccc21` [Oxcarbazepine], the figure is 0.0551; as for `CC1(C)S[C@@H]2[C@H](NC(=O)[C@H](N)c3ccc(O)cc3)C(=O)N2[C@@H]1C(=O)[O-].[Na+]` [Amoxicillin Sodium], 0.204; as for `Cc1oncc1C(=O)Nc1ccc(C(F)(F)F)cc1` [Leflunomide], -0.361. On to `CC(C)NCC(O)COc1ccc(COCCOC(C)C)cc1.O=C(O)/C=C/C(=O)O` (configuration not stated) [Bisoprolol fumarate], for which the Prob-Naive was determined as 0.129. Still for that read-out and setting: as for `Cc1c(CN2CCN(C(=O)[C@H](C)O)CC2)sc2c(N3CCOCC3)nc(-c3cnc(N)nc3)nc12`, the figure is -0.283; as for `CC1CCc2c(N3CCC(O)CC3)c(F)cc3c(=O)c(C(=O)O)cn1c23` (configuration not stated) [Nadifloxacin], -0.376; as for `CC1CCN(CC[C@H]2CCCN2S(=O)(=O)c2cccc(O)c2)CC1.Cl`, 0.389. Same read-out and setting: as for `CC[C@]1(O)C[C@@H]2C[N@](CCc3c([nH]c4ccccc34)[C@@](C(=O)OC)(c3cc4c(cc3OC)N(C)[C@@H]3C45CCN4CC=C[C@](CC)([C@H]45)[C@H](OC(C)=O)[C@]3(O)C(=O)OC)C2)C1` (some centres not stated) [Vinblastine], the figure is 0.121. `C#CCN(C)CCCOc1ccc(Cl)cc1Cl.Cl` [Clorgyline HCl] had a Prob-Naive of -0.298. On the same count and under the same terms, the figure for `CC(C)[C@H](CNC(=O)[C@@H](NC(=O)c1cccc(-c2ccccc2)n1)[C@@H](C)O)B(O)O` is -0.91; for `Cn1c(=O)cc(N2CCC[C@@H](N)C2)n(Cc2ccccc2C#N)c1=O` [Alogliptin] it is 0.232; for `N#CC[C@@H](C1CCCC1)n1cc(-c2ncnc3[nH]ccc23)cn1` it is -0.499. `O=C(NC(NC(=S)Nc1ccc(F)c([N+](=O)[O-])c1)C(Cl)(Cl)Cl)C(c1ccccc1)c1ccccc1` (configuration not stated) came in with a Prob-Naive of 0.319. `COc1cc([C@H]2Oc3cc([C@@H]4Oc5cc(O)cc(O)c5C(=O)[C@@H]4O)ccc3O[C@@H]2CO)ccc1O` [Silibinin] gave a Prob-Naive of 0.47. Same read-out and setting: the figure for `Cc1ccnc(NS(=O)(=O)c2ccc(N)cc2)n1` [Sulfamerazine] is 0; for `COc1ccc2c(Oc3ccc(NC(=O)c4c(C)n(CC(C)(C)O)n(-c5ccccc5)c4=O)nc3)ccnc2c1` it is -0.186; for `c1cn2cc(-c3ccc4cn[nH]c4c3)nc(Nc3ccc(N4CCOCC4)cc3)c2n1` it is -0.455. Same read-out and setting: as for `N.N.O=C([O-])C1(C(=O)[O-])CCC1.[Pt+2]` [Carboplatin], the figure is -0.295; as for `Cc1cc2nc3c(=O)[nH]c(=O)nc-3n(C[C@H](O)[C@H](O)[C@H](O)CO)c2cc1C` [Riboflavin (Vitamin B2)], -0.142.

On to `O=C(Oc1ccccc1C(=O)O)c1ccccc1O` [Sasapyrine], for which the Prob-Naive was -0.178.

The compound `CCCc1cc2c(N3CCN(C4=NCC(C)(C)S4)CC3)ncnc2s1` [MI-2 (Menin-MLL Inhibitor)] gave a Prob-Naive of -0.268. The same measure, in the same setting: the figure for `CC(NC(=O)c1ccccc1/N=C/c1c(O)ccc2ccccc12)c1ccccc1` (configuration not stated) [Sirtinol] is -1.24. With `COc1cc(C(=O)NC2CCCNC2)cc(OC)c1OC` (configuration not stated) [Troxipide], the Prob-Naive is 0.0179. On the same count and under the same terms, as for `O=C(O)c1cc(/N=N/c2ccc(S(=O)(=O)Nc3ccccn3)cc2)ccc1O` [Sulfasalazine], the figure is 0.26; as for `O=C(Oc1cc(S(=O)(=O)c2ccccc2)ccc1[N+](=O)[O-])c1ccc(Cl)cc1`, -0.642; as for `CC(=O)CCCCn1c(=O)c2c(ncn2C)n(C)c1=O` [Pentoxifylline], 0.0912. The same measure, in the same setting: as for `Nc1nc(=O)[nH]cc1F` [Flucytosine], the figure is -0.404; as for `CCNC(=O)C1=C(c2ccc(OC)cc2)C(=C2C=C(Cl)C(O)=CC2=O)NN1`, 0.489. As for `CC(C)C[C@@H](C(=O)N[C@H](C(=O)OC1CCCC1)c1ccccc1)[C@H](O)C(=O)NO` [Tosedostat (CHR2797)], the Prob-Naive is -0.235.

`N=C(N)NS(=O)(=O)c1ccc(N)cc1` [Sulfaguanidine] registered a Prob-Naive of 0.506.
